No constants are given. Whether binding was seen depends on the method and setting. Binding calls can cover weak binding; strength is not graded here. Tags and fused reporters may be left off the sequences shown.
Molecular target: T1, C. jejuni PpfC fused at the N-terminus to Strep-tag (apo-PpfC-Strep) (Campylobacter jejuni NCTC 11168) (UniProt Q9PI08)
T1 sequence: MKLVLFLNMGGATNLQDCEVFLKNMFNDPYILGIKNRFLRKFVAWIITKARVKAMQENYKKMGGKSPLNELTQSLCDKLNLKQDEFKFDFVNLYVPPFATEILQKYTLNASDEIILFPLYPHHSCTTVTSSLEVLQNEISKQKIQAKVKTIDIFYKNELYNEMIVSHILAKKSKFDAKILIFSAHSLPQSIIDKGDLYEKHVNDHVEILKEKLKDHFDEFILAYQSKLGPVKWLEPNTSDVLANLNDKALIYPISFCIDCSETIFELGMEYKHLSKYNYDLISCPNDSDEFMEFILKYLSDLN
Assay: pull-down; apo-PpfC-Strep incubated 30 min with apo-CgdH2-His in buffer B (50 mM Tris-HCl, pH 8) at 4°C; loaded onto Strep-Tactin Sepharose; washed with buffer B with 400 mM NaCl and 10% glycerol; eluted with 5 mM desthiobiotin; fractions on SDS-PAGE; both purified

Chains of the proteins cited; added tags and fusions are not shown. Lines headed by an entry give the natural chain unless they say otherwise; changes in a name come on top.
UniProt Q0PBE7: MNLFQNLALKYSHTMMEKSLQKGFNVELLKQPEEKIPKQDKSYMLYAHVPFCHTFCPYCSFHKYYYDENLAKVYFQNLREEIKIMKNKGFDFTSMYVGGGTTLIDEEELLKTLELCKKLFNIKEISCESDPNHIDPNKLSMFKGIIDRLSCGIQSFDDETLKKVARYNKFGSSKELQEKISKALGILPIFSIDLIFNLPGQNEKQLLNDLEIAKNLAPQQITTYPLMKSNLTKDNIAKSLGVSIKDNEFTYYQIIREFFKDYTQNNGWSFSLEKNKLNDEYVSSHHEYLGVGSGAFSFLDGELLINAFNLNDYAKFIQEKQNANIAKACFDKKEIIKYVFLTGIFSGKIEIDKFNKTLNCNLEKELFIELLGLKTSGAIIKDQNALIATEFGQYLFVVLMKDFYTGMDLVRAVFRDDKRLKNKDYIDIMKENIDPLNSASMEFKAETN

C. jejuni CgdH2 linked at the C-terminus to His-tag (apo-CgdH2-His) (from UniProt Q0PBE7)
binding: binds

From PMC10320005, “In Campylobacter jejuni, a new type of chaperone receives heme from ferrochelatase” (Frontiers in Genetics, 2023)
